Experimental data: publication PMC8881269

Protein sequences, listed by entry. Tags and fused reporters are not part of them.
UniProt Q96RU2: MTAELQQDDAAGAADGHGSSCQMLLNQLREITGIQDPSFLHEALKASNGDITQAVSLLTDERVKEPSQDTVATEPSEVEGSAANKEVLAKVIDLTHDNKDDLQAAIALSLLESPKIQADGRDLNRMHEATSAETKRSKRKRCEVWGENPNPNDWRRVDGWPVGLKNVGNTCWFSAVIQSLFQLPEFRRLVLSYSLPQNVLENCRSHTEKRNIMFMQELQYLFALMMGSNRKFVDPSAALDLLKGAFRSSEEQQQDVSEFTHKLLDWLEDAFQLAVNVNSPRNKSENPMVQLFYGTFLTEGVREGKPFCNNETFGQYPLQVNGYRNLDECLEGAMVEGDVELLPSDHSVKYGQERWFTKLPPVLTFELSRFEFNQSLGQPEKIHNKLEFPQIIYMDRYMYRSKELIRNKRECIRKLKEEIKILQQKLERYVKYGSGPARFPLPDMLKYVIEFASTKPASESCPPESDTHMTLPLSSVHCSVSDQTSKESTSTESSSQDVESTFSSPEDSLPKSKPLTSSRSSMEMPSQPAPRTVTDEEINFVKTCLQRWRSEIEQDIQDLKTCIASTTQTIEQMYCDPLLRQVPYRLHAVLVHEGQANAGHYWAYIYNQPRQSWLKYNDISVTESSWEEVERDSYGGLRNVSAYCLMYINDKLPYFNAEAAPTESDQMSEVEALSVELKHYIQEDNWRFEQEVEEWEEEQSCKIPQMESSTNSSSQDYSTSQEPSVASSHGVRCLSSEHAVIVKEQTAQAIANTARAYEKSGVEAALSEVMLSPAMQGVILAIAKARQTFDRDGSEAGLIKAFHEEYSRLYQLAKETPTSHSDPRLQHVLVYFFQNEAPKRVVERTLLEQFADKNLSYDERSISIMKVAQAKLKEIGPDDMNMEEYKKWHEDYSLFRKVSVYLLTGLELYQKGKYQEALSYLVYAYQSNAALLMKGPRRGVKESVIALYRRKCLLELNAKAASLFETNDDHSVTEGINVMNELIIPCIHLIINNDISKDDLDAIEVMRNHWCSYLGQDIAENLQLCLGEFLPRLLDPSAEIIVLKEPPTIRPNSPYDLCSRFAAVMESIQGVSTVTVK
UniProt Q14676: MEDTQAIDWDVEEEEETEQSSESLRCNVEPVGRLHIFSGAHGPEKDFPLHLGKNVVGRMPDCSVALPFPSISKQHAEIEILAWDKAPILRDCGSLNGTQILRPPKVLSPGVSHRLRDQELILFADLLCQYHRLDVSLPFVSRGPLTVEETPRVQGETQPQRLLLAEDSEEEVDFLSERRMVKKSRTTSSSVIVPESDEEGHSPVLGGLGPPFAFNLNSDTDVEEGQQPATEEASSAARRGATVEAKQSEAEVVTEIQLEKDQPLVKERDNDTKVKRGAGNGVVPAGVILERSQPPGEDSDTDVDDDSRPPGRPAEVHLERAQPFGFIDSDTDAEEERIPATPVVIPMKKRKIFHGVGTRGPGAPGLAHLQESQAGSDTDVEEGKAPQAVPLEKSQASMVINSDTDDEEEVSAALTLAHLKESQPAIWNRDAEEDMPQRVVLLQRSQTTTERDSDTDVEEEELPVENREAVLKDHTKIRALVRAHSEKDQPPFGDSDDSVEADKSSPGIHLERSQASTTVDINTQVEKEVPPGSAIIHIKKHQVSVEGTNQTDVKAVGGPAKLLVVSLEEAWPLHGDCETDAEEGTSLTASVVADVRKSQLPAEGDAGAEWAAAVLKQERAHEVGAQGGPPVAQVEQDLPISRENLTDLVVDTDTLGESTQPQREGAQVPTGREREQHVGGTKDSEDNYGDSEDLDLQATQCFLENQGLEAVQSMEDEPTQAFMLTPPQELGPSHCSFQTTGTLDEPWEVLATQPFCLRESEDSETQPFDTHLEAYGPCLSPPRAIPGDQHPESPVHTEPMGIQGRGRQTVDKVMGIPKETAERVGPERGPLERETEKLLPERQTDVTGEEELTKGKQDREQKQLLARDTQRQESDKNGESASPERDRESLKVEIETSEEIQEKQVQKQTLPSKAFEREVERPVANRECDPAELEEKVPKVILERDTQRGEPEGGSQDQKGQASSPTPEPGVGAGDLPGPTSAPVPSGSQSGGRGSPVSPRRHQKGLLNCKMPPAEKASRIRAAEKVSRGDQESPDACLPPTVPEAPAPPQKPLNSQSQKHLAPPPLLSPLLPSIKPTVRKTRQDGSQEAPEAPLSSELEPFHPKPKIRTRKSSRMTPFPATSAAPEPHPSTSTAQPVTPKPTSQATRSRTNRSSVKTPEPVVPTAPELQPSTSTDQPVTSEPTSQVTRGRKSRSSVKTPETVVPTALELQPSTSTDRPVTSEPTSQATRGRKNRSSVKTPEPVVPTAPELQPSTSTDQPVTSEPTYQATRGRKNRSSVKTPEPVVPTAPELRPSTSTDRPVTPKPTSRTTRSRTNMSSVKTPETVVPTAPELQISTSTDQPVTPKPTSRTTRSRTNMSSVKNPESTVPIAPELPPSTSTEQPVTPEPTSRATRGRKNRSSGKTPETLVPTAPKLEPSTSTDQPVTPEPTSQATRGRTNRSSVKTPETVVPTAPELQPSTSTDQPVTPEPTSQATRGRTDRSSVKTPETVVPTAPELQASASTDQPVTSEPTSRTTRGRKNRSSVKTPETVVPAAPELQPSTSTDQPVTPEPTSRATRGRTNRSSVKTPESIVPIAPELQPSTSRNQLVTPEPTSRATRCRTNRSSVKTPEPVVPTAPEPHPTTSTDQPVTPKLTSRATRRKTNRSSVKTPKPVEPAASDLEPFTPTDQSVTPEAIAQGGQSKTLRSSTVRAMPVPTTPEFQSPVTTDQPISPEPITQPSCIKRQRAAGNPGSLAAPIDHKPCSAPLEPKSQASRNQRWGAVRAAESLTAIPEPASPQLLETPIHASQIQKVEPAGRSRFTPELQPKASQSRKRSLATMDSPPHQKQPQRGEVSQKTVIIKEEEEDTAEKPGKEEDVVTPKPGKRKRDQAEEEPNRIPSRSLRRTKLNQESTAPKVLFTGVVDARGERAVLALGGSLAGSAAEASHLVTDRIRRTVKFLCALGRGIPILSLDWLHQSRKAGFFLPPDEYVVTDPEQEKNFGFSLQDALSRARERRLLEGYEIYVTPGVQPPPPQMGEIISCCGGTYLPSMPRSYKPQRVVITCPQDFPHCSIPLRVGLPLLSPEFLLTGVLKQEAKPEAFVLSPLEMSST
UniProt Q14980: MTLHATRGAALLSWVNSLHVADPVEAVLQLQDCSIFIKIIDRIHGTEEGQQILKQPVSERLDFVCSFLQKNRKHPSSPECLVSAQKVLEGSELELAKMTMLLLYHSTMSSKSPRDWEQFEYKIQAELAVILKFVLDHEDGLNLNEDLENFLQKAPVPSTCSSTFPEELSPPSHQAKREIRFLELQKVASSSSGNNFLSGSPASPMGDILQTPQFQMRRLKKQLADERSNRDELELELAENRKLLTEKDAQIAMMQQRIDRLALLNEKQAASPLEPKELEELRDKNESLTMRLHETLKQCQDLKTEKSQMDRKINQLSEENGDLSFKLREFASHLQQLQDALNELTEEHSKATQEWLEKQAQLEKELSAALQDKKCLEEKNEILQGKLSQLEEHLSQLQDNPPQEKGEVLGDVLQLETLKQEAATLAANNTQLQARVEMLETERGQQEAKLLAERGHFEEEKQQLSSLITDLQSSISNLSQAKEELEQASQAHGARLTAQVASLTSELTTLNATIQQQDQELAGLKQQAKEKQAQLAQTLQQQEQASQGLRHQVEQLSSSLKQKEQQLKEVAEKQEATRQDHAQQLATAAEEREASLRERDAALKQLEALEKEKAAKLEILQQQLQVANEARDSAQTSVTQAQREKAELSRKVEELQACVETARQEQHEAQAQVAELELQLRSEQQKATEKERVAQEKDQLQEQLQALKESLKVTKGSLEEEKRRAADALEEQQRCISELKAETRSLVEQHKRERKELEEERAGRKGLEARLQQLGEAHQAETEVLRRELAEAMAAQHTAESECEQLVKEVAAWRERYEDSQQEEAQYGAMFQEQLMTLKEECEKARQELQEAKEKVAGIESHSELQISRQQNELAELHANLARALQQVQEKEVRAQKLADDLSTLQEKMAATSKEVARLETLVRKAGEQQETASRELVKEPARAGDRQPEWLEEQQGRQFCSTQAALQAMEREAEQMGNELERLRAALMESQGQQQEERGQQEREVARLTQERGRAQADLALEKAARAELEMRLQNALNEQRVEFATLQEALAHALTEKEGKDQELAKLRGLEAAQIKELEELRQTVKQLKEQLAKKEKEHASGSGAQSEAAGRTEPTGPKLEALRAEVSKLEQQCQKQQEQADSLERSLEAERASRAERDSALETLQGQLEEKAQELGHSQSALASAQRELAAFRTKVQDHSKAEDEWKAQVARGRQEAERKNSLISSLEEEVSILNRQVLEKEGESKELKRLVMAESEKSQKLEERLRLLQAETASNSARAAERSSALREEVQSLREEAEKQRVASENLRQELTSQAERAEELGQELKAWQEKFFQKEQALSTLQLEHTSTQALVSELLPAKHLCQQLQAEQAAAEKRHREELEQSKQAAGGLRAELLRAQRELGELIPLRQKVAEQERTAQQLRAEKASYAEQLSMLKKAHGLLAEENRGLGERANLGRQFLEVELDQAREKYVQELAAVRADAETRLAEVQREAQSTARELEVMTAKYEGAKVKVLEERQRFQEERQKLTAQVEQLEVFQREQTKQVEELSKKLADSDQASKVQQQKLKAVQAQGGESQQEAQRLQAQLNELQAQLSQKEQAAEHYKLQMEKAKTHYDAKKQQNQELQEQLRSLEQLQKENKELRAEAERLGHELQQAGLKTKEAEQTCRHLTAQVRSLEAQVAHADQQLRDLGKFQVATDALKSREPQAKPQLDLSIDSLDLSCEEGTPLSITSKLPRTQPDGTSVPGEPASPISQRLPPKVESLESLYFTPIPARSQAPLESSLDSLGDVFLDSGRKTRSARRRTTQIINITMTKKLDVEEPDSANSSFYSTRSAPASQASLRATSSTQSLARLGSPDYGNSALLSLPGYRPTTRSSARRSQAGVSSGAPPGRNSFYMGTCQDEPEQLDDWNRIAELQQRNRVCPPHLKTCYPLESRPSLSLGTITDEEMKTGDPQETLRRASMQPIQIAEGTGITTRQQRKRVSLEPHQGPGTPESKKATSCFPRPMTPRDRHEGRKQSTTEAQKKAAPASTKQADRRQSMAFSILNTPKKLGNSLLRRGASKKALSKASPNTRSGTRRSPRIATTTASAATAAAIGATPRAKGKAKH

Biological target: Ubiquitin Specific Peptidase 28 (human (endogenous in HCT116)) (UniProt Q96RU2)
Assay: affinity purification with mass spectrometry; anti-USP28 antibody on magnetic beads; lysates of HCT116 cells with and without DCD treatment (24 h after cytokinesis failure); lysis buffer 25 mM Tris-HCl pH 7.4, 150 mM NaCl, 1 mM EDTA, 1% NP-40, 5% glycerol; overnight at 4 °C; washes with 500 mM NaCl, 0.5% Triton X-100; volcano plot, t-test, FDR 0.05

Row | binding | Substance
1 | binds | mediator of DNA damage checkpoint 1 (from UniProt Q14676 1-2089)
2 | binds | nuclear mitotic apparatus protein 1 (from UniProt Q14980 1-2115)

No constants are given. Whether binding was seen depends on the method and setting. In cells and extracts the contact can be indirect. A yes stands for co-enrichment or nearness to the bait. Other partners may have been found.
